According to publication PMC7643154:
These are yes or no findings as the source states them, for the method shown. In cells and extracts the contact can be indirect. Some entries that bind do so weakly or less than the wild type. One block for each binder: values may come before it.

Protein sequences, listed by entry. Tags and fused reporters are not part of them.
UniProt P15976: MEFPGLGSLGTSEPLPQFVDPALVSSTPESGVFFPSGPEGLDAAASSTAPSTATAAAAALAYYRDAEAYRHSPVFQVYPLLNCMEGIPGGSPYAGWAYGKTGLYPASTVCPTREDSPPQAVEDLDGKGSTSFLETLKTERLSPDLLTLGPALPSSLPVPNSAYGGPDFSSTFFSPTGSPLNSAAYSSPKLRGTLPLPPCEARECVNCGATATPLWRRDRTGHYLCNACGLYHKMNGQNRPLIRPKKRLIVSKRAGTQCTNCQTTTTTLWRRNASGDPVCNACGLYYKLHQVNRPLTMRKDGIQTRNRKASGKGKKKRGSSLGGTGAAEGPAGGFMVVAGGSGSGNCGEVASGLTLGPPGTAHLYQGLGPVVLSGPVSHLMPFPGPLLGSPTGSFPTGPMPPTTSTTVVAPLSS
UniProt P17679: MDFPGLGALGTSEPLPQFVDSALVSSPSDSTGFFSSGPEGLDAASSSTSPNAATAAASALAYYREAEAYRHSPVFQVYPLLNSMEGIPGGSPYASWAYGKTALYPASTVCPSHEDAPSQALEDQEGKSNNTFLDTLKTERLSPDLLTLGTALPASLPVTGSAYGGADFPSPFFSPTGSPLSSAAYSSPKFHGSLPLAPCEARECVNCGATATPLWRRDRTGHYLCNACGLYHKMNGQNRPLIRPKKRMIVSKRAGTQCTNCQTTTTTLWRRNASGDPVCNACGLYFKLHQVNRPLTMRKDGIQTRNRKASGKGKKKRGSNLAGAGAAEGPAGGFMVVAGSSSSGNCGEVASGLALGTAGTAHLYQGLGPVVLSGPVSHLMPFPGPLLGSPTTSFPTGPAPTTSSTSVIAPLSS

Tests used:
[1] = target: GATA-1 (human, endogenous in K562 cells) (human (endogenous in K562)) (UniProt P15976); assay: co-IP; GATA-1 precipitated with GATA-1 antibody on Dynabeads Protein A from K562 cells, FOG-1 detected by western blotting; cells treated with 0, 0.5, 1 or 2 uM AsIII for 48 h or with the zinc chelator TPEN
[2] = target: GATA-1 (mouse, endogenous in primary bone marrow erythroid cells) (mouse (endogenous in primary mouse bone marrow erythroid cells)) (UniProt P17679); assay: co-IP; GATA-1 precipitated with GATA-1 antibody on Dynabeads Protein A from primary mouse bone marrow erythroid cells, FOG-1 detected by western blotting; cells treated with 0, 0.1 or 0.5 uM AsIII for 24 h

binding [1]: binds
B1: friend of GATA-1 (FOG-1) (human, endogenous in K562 cells) (protein, UniProt Q8IX07 1-1006)
chain: MSRRKQSNPRQIKRSLGDMEAREEVQLVGASHMEQKATAPEAPSPPSADVNSPPPLPPPTSPGGPKELEGQEPEPRPTEEEPGSPWSGPDELEPVVQDGQRRIRARLSLATGLSWGPFHGSVQTRASSPRQAEPSPALTLLLVDEACWLRTLPQALTEAEANTEIHRKDDALWCRVTKPVPAGGLLSVLLTAEPHSTPGHPVKKEPAEPTCPAPAHDLQLLPQQAGMASILATAVINKDVFPCKDCGIWYRSERNLQAHLLYYCASRQGTGSPAAAATDEKPKETYPNERVCPFPQCRKSCPSASSLEIHMRSHSGERPFVCLICLSAFTTKANCERHLKVHTDTLSGVCHSCGFISTTRDILYSHLVTNHMVCQPGSKGEIYSPGAGHPATKLPPDSLGSFQQQHTALQGPLASADLGLAPTPSPGLDRKALAEATNGEARAEPLAQNGGSSEPPAAPRSIKVEAVEEPEAAPILGPGEPGPQAPSRTPSPRSPAPARVKAELSSPTPGSSPVPGELGLAGALFLPQYVFGPDAAPPASEILAKMSELVHSRLQQGAGAGAGGAQTGLFPGAPKGATCFECEITFSNVNNYYVHKRLYCSGRRAPEDAPAARRPKAPPGPARAPPGQPAEPDAPRSSPGPGAREEGAGGAATPEDGAGGRGSEGSQSPGSSVDDAEDDPSRTLCEACNIRFSRHETYTVHKRYYCASRHDPPPRRPAAPPGPPGPAAPPAPSPAAPVRTRRRRKLYELHAAGAPPPPPPGHAPAPESPRPGSGSGSGPGLAPARSPGPAADGPIDLSKKPRRPLPGAPAPALADYHECTACRVSFHSLEAYLAHKKYSCPAAPPPGALGLPAAACPYCPPNGPVRGDLLEHFRLAHGLLLGAPLAGPGVEARTPADRGPSPAPAPAASPQPGSRGPRDGLGPEPQEPPPGPPPSPAAAPEAVPPPPAPPSYSDKGVQTPSKGTPAPLPNGNHRYCRLCNIKFSSLSTFIAHKKYYCSSHAAEHVK

binding [2]: binds
B2: friend of GATA-1 (FOG-1) (mouse, endogenous in primary bone marrow erythroid cells) (protein, UniProt O35615 1-995)
chain: MSRRKQSNPRQIKRSLRDMEAGEEAKAMDSSPKEQEAPDPEAPAIEEPPSPPREDVSPPAVPAPPESPEDPEDMEGQELEMRPQDEEKEEKEEEAAMASPWSGPEELELALQDGQRCVRARLSLTEGLSWGPFYGSIQTRALSPEREEPGPAVTLMVDESCWLRMLPQVLTEEAANSEIYRKDDALWCRVTKVVPSGGLLYVRLVTEPHGAPRHPVQEPVEPGGLAPVHTDIQLLPQQAGMASILATAVINKDVFPCKDCGIWYRSERNLQAHLLYYCASRQRAGSPVSATEEKPKETYPNERVCPFPQCRKSCPSASSLEIHMRSHSGERPFVCLICLSAFTTKANCERHLKVHTDTLSGVCHNCGFISTTRDILYSHLVTNHMVCQPGSKGEIYSPGAGHPAAKLPPDSLAGFQQHSLMHSPLVPADKAPTPSSGLDSKAEVTNGETRVPPQNGGSSESPAAPRTIKVEAAEEPEATRASGPGEPGPQAPSRTPSPHSPNPVRVKTELSSPTPGSSPGPGELTMAGTLFLPQYVFSPDAGTTTVPTAPQASEILAKMSELVHNRLQQGAGSSGAAGTPTGLFSGTKGATCFECEITFNNINNFYVHKRLYCSGRRAPEDPPTVRRPKAATGPARAPAGAAAEPDPSRSSPGPGPREEEASGTTTPEAEAAGRGSEGSQSPGSSVDDAEDDPSRTLCEACNIRFSRHETYTVHKRYYCASRHDPPPRRPPAPTTAPGPAAPALTAPPVRTRRRRKLYELPAAGAPPPAAGPAPVPVVPSPTAELPSSPRPGSASAGPAPALSPSPVPDGPIDLSKRPRRQSPDAPTALPALADYHECTACRVSFHSLEAYLAHKKYSCPAAPLRTTALCPYCPPNGRVRGDLVEHLRQAHGLQVAKPAASPGAEPRTPAERAPRDSPDGRAPRSPSPAPENTPSDPADQGARTPSKGPPAPAPAPGGGGGHRYCRLCNIRFSSLSTFIAHKKYYCSSHAAEHVK
